Measurements from PubChem BioAssay AID529 (NMMLSC, 2006).
About 50 (0.2%) of roughly 24,000 compounds were called active. This list was built around the results that the source calls inconclusive (neither active nor inactive); the mix of calls is not that of the screen.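 The calls were made as follows: active = inhibition above 50%; inconclusive = compound itself fluorescent, judged against control cell fluorescence; inactive = the rest.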

Sequences of proteins named here, by UniProt entry; tags and fusion partners are left off.
UniProt P13612, whole entry, looked up: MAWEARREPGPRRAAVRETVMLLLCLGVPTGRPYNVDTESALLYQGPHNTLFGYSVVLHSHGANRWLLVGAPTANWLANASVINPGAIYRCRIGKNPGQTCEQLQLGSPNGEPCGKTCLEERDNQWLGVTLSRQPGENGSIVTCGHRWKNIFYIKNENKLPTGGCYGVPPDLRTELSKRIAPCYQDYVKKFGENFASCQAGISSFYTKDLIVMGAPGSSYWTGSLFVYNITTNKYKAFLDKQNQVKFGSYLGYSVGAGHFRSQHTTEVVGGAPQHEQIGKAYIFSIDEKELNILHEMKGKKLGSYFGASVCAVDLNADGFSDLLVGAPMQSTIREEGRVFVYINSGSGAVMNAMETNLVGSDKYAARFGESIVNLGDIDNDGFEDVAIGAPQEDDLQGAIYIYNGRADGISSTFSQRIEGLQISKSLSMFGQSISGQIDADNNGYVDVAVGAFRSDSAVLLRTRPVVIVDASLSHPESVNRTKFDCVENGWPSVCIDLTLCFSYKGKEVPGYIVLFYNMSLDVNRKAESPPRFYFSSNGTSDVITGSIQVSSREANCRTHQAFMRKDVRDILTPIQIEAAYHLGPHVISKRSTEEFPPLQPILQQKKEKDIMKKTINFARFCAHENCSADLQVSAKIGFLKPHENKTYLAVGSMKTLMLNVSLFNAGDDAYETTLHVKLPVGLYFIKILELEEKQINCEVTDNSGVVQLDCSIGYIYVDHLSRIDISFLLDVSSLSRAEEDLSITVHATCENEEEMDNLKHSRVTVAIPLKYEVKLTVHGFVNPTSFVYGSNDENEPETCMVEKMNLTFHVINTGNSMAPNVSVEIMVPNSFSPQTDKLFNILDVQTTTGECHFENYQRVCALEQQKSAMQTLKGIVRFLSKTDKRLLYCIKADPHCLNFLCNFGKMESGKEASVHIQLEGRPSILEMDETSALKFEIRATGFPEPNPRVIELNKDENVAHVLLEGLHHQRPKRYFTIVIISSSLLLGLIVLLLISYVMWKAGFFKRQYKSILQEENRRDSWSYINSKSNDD

biological target: Integrin alpha-4 (Homo sapiens) (UniProt P13612); experiment: blockers of LDV-FITC ligand binding on VLA-4 – Jurkat cells, Mn2+ activated, primary screen (AID 529); conditions: LDV-FITC binding with Mn2+, flow cytometry; stronger effect = higher value, screened at 10 µM (by protocol), 100% = Mn2+-driven binding gain fully reversed unless noted;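 as to inhibition: 0% = Mn2+ stimulated cells lacking compound and 100% = ligand binding without Mn2+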

SMILES | inhibition
CC(C)c1cc(CN2CCN(CCC#N)CC2)cc(C(C)C)c1O | inconclusive
COCCCNC(=O)CS(=O)Cc1nc(-c2ccccc2C)oc1C (stereo not given) | inconclusive
CC(C)c1ccc(OCc2ccc(C(=O)N3CCN(c4ccccn4)CC3)cc2)cc1 | inactive: 33%
O=C1CCc2cc(S(=O)(=O)N3CCC(C(=O)NC4CCCCCCC4)CC3)ccc2N1 | inconclusive
Cc1ccc(S(=O)(=O)NCCOC(=O)Nc2sc(=S)n(C)c2C)cc1 | inconclusive
O=C(CCN1C(=O)C2C3C=CC(C3)C2C1=O)NCCN1CCCc2ccccc21 (stereo not given) | inactive: 11%
O=C1c2ccccc2-c2ncnc3c(N4CCOCC4)cc(N4CCOCC4)c1c23 | inconclusive
CCc1ccc(S(=O)(=O)NCc2csc(C)n2)s1 | inconclusive
O=C(CCN1CCN(CCC(=O)c2ccccc2)CC1)c1ccccc1 | inconclusive
COc1ccc2oc(=O)c(-c3nnc(NCc4ccco4)s3)cc2c1 | inconclusive
Cc1cc(NC(=O)CC(C)(C)C)nc2c1c(=O)oc1ccccc12 | inconclusive
Cc1ccc2nc(/C(C#N)=N/O)[nH]c2c1 | inconclusive
COc1ccc(-c2cn3cccnc3n2)cc1NC(=O)C1CCCC1 | inactive: -4%
Cc1cc(Nc2ccc(C)c(Br)c2)n2nc(C)nc2n1 | inconclusive
COc1ccc(CCn2c(=S)[nH]c3cc(C(=O)NCc4ccco4)ccc3c2=O)cc1OC | inconclusive
Cc1ccc(-c2nc(CSCC(=O)N3CCN(C(=O)c4ccco4)CC3)c(C)o2)cc1 | inconclusive
O=C(NCC(c1cccnc1)N1CCN(c2ccccc2F)CC1)OCc1ccccc1 (stereo not given) | inconclusive
O=C(O)c1cc(S(=O)(=O)N2CCCCC2)ccc1F | inconclusive
CCC(C)[C@@H](C(=O)Nc1ccc(OC)c(OC)c1)N1Cc2ccccc2C1=O (stereo not given in full) | inconclusive
O=c1oc2c3c4c(cc2s1)CCCN4CCC3 | inconclusive
COc1ccccc1N1CCN(C(=O)CSc2nc(-c3ccccc3)cc(=O)[nH]2)CC1 | inconclusive
CC1(O)CC(=O)N(c2ccccc2)O1 (stereo not given) | inconclusive
COc1ccc(C2c3c(oc4ccccc4c3=O)C(=O)N2c2ccccn2)cc1OC (stereo not given) | inconclusive
CCOC(=O)c1ccccc1Nc1cc(C)nc2nc(C)nn12 | inconclusive

SMILES | inhibition
CCCCN(CC)CCNC(=O)c1cc2c(C)nc3ccccc3c2o1 | inactive: -6.5%
O=C(Cn1ncc2c(=O)oc3ccccc3c21)N1CCCc2ccccc21 | inconclusive
Cc1cc(NC(=O)c2cc(CC(C)C)on2)n(-c2ccccc2)n1 | inconclusive
COC(=O)c1ccc2c(=O)n(C3CCCCC3)c(SCC#N)nc2c1 | inconclusive
Cc1c(C(=O)N2CCCC2)oc2c1-c1[nH]ncc1CC2 | inconclusive
CCc1ccc(NC(=O)CSc2nc3c(c(=O)n(C)c(=O)n3C)n2C)cc1 | inconclusive
Cn1c(=O)cc(SCC(=O)Nc2ccccn2)c2ccccc21 | inconclusive
CCN1CCN(c2nc3c(C)cccn3c(=O)c2/C=C(\C#N)S(=O)(=O)c2ccccc2)CC1 | inconclusive
Cc1cc(C)c(S(=O)(=O)Nc2ccc(OCC(=O)O)cc2)c(C)c1 | inactive: -2%
CC(C)C(=O)Nc1nc2c(ncn2C2CC(O)C(CO)O2)c(=O)[nH]1 (stereo not given) | inconclusive
CC(=O)c1cccc(NC(=O)CC2Oc3ccc(C)cc3NC2=O)c1 (stereo not given) | inconclusive
COc1cccc2[nH]c3c(N4CCC(C)CC4)ncnc3c12 | inconclusive
Cc1cc(C)n2nc3nc(N4CCCC4)nc(-c4ccccc4)c3c2n1 | inconclusive
CN(Cc1ccccc1)C(=O)CCNC(=O)Cn1cnc2ccccc2c1=O | inconclusive
CCOC(=O)CSc1nnc(CNC(=O)c2ccc(OC)c(OC)c2)n1C | inactive: -12%
CCOC(=O)N1CCN(c2nc(-c3ccc(OC)cc3)no2)CC1 | inactive: 2%
O=C(COC(=O)c1cncc(Br)c1)NCCC1=CCCCC1 | inactive: -5%
CCCCCC#CCC#CCC#CCC#CCCCC(=O)O | inactive: -30.5%
COC(=O)C1=C(C(=O)c2ccc(C)cc2)C(c2ccc(O)c(OC)c2)n2nnnc2N1 (stereo not given) | inconclusive
COc1ccc(OC)c(CCNC(=O)CC2Oc3ccccc3NC2=O)c1 (stereo not given) | inconclusive
O=P(c1ccccc1)(c1ccccc1)C(c1ccco1)N1CCOCC1 (stereo not given) | inactive: 14%
COc1ccc(NC(=O)CSc2nnc(Cn3c(=O)sc4ccccc43)n2C)c(OC)c1 | inconclusive
O=C(Nc1c(C(=O)N2CCCCC2)cnn1-c1ccccc1)c1ccccc1 | inconclusive
Cc1ccc(Cl)cc1NC(=O)Cn1cc2c(n1)CCCC2 | inconclusive

SMILES | inhibition
Cc1oc(C(=O)O)cc1CSCc1cc(C(=O)O)c(C)o1 | inconclusive
Cc1cc(S(=O)(=O)NCc2ccco2)c(C)s1 | inconclusive
CCCCC(CC)C(=O)Nc1ccc(Cl)cn1 (stereo not given) | inactive: -17.5% [stronger effect = higher value, 100% = Mn2+-driven binding gain fully reversed, screened at 10 µM (by protocol)]
CC(C)N1C(=O)CCC1C(=O)NCCc1ccc(Cl)cc1 (stereo not given) | inconclusive
CC(=O)N1CCCc2cc(S(=O)(=O)NC(C(=O)NC(C)c3ccccc3)C(C)C)ccc21 (stereo not given) | inconclusive
Cc1cccc(N2CCN(S(=O)(=O)c3ccc4c(c3)c(=O)n(C)c(=O)n4C)CC2C)c1 (stereo not given) | inactive: -4% [stronger effect = higher value, 100% = Mn2+-driven binding gain fully reversed, screened at 10 µM (by protocol)]
O=C(CCN1C(=O)C2C3C=CC(C3)C2C1=O)Nc1nccs1 (stereo not given) | inconclusive
CC1(C)CC(=O)c2cc(OCC(=O)NCCCN3CCN(c4ccccc4F)CC3)ccc2O1 | inactive: 7.8%
Cc1nc2c(-c3ccccc3)c(C)nn2c(C)c1CCC(=O)NCc1ccco1 | inactive: 5.5%
O=C(CCNC(=O)Cn1cnc2ccccc2c1=O)NCCC1=CCCCC1 | inconclusive
CCOC(=O)c1c(NC(=O)C(F)(OC)C(F)(F)F)sc2c1CCN(C)C2 (stereo not given) | inconclusive
Cc1nn(C)c(C)c1S(=O)(=O)NCc1cccs1 | inconclusive
CCOC(=O)Cn1c(=O)oc2cc(S(=O)(=O)NCCCc3ccccc3)ccc21 | inconclusive
O=C(CC(=O)N1CCN(c2ccccn2)CC1)Nc1ccc2nc3n(c(=O)c2c1)CCCCC3 | inactive: 5%
Cc1onc(-c2ccccc2Cl)c1C(=O)N1CCN(c2cccc(Cl)c2)CC1 | inconclusive
COc1cc(C2c3c(oc4c(C)cc(C)cc4c3=O)C(=O)N2Cc2cccnc2)cc(OC)c1OC (stereo not given) | inactive: -10%
O=C(Nc1ccc(SC(F)F)cc1)c1ccc2nccnc2c1 | inconclusive
CCCCCc1nc2c(=O)n(C)c3ccccc3c2o1 | inconclusive
COc1cccc(C2=CC(c3cccc(OC)c3OC)n3nnnc3N2)c1 (stereo not given) | inconclusive
Cc1cccn2c(=O)c3cc(C(=O)Nc4ccc(N(C)C)cc4)n(C)c3nc12 | inconclusive
COc1ccccc1CNC(=O)CN(c1ccc(C)cc1)S(=O)(=O)c1c(C)n[nH]c1C | inconclusive
O=C(OCC#CCSc1nnc(-c2ccc(Br)cc2)o1)c1ccco1 | inconclusive
COc1cccc(NS(=O)(=O)c2ccc3[nH]cc(C(=O)NCCC(C)C)c(=O)c3c2)c1 | inconclusive
CCOc1ccc(NC(=O)CSc2nc3ccccc3c(=O)n2CCNC(C)=O)cc1 | inconclusive

As a short view, part of the list above:
SMILES | inhibition
COC(=O)C1=C(C(=O)c2ccc(C)cc2)C(c2ccc(O)c(OC)c2)n2nnnc2N1 (stereo not given) | inconclusive
COc1ccc(OC)c(CCNC(=O)CC2Oc3ccccc3NC2=O)c1 (stereo not given) | inconclusive
O=P(c1ccccc1)(c1ccccc1)C(c1ccco1)N1CCOCC1 (stereo not given) | inactive: 14%
COc1ccc(NC(=O)CSc2nnc(Cn3c(=O)sc4ccccc43)n2C)c(OC)c1 | inconclusive
O=C(Nc1c(C(=O)N2CCCCC2)cnn1-c1ccccc1)c1ccccc1 | inconclusive
Cc1ccc(Cl)cc1NC(=O)Cn1cc2c(n1)CCCC2 | inconclusive
Cc1oc(C(=O)O)cc1CSCc1cc(C(=O)O)c(C)o1 | inconclusive

Remaining list, next part:

SMILES | inhibition
COc1ccc(OC)c(N2Cc3cc(C)c(C)cc3C2)c1 | inactive: -17.5%
O=C(Cn1cc2c(n1)CCCC2)NCc1cccc(Cl)c1 | inactive: -4%
CCc1ccc(NC(=O)N(CCCN2CCOCC2)C(C)c2cc3cccc(OC)c3o2)cc1 (stereo not given) | inactive: 9%
COC(=O)c1ccc2c(c1)NC(=O)C(N1CCOCC1)S2 (stereo not given) | inconclusive
COc1ccc(NC(=O)Cn2nnc(C(N)=O)c2N)c(OC)c1 | inconclusive
COc1ccccc1CNC(=O)C1CCN(Cc2nc(-c3cccc(Cl)c3)oc2C)CC1 | inconclusive
Cc1ccc(CNC(=O)CS(=O)Cc2nc(-c3cccs3)oc2C)cc1 (stereo not given) | inconclusive
COC(=O)c1cc2sccc2n1CC(=O)N1CCCc2ccccc21 | inconclusive
O=C(CN1CC(c2ccccc2)CC1=O)Nc1ccc2c(c1)OCO2 (stereo not given) | inconclusive
Cc1nn(-c2ccccc2)c2sc(C(=O)N3CCOCC3)cc12 | inactive: -20%
CCOc1ccccc1NC(=O)CCN1CCN(S(=O)(=O)c2ccc(Br)cc2)CC1 | inactive: -9%
Cc1nc2ccccc2c2oc(C(=O)N3CCc4ccccc43)cc12 | inactive: -7%
c1ccc(N2CCN(c3nc4cc5c(cc4s3)OCO5)CC2)cc1 | inconclusive
COc1ccc(C2OC(=O)CC2C(=O)NC2CCCCCC2)cc1OC (stereo not given) | inactive: 3%
Cc1c(=O)n(OCc2ccccn2)c2ccccc2[n+]1[O-] | inconclusive
Cn1c(=O)[nH]c(=O)c2c1nc(N1CCCCCC1)n2CCCSc1nc2ccccc2o1 | inactive: -9.5%
CC1(C)CC(=O)N(CC(=O)NC2CCCC2)c2ccccc2S1(=O)=O | inconclusive
COc1ccc(-c2nc(-c3ccc(NC(=O)c4ccncc4)cc3)no2)cc1OC | inconclusive
Cc1cc(C)c2c(n1)nn1c(N3CCN(c4ccccc4C)CC3)cc(C)nc21 | inactive: 28%
CCCCN(C)C(=O)c1oc2ccc(S(=O)(=O)N3CCCCCC3)cc2c1C | inconclusive
C=CCN1C(=O)CSc2ccc(C(=O)OCC)cc21 | inconclusive
CC(CC(=O)NC1CCSC1=O)c1ccccc1 (stereo not given) | inconclusive
CCOC(=O)N1CCC(NC(=O)c2ccc(CS(=O)(=O)c3ccc(OC)cc3)o2)CC1 | inactive: -12%
